Test results published in article PMC11648230, “Structure–function analysis of tRNA t^6A-catalysis, assembly, and thermostability of Aquifex aeolicus TsaD2B2 tetramer in complex with TsaE” (The Journal of Biological Chemistry, 2024).
Results are given in words; binding and its absence hold for the method and conditions named.

B1: Thermotoga maritima TsaB with nine alanine mutations in β3 (protein, UniProt Q9WZX7 2-206)
chain: NVLALDTSQRIRIGLRKGAAAFAIAAAGAAKHAEILPVVVKKLLDELDLKVKDLDVVGVGIGPGGLTGLRVGIATVVGLVSPYDIPVAPLNSFEMTAKSCPADGVVLVARRARKGYHYCAVYLKDKGLNPLKEPSVVSDEELEEITKEFSPKIVLKDDLLISPAVLVEESERLFREKKTIHYYEIEPLYLQKSIAELNWEKKKRG
B2: Aquifex aeolicus TsaE (enzyme, UniProt O67011 1-133)
chain: MELLKEVILESEEDTYKLAEEIAQLLKGSEVICLRGTLGAGKTTFVKALAKALKVKNPSAVRSPTFTLVNEYETDKGKLIHIDLYRVPDFDYSEFIGEGILAVEWEERDKPCDIILEIEILDENKRKVRIYRK

Assays:
[1] = target: Thermotoga maritima TsaB with nine alanine mutations in β3 (Thermotoga maritima) (UniProt Q9WZX7); test: SEC; co-purified TsaD–TsaB complexes and variants; elution profiles compared with one another (tetramer against dimer); Superdex 200, after Ni-NTA; both purified
[2] = target: Aquifex aeolicus TsaE (Aquifex aeolicus) (UniProt O67011); test: SEC; A. aeolicus TsaE alone; elution volume compared with monomeric TsaEs of T. maritima and E. coli; both purified

Row | Binder | binding [1] | binding [2]
1 | B1 | no binding | –
2 | B2 | – | no binding
